For assay [1], the target named is T1, Arabidopsis 14-3-3 protein GF14phi fused to GST (Arabidopsis) (UniProt P46077).
T1 sequence: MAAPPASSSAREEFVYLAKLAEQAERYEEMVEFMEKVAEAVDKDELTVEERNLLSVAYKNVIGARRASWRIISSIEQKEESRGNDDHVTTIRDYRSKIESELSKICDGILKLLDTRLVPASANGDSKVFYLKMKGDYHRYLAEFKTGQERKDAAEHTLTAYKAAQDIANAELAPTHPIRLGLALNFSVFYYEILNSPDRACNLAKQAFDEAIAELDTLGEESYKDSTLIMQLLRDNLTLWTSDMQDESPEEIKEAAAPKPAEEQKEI
Kind of assay: pull-down; GST-GF14phi (0.4 nmole) on glutathione beads; 15 µM peptide phosphorylated by OST1 with ATP^γ32; 30 min at 25°C; 20 mM Tris-HCl pH 7.5, 150 mM NaCl, 1 mM CaCl2, 1 mM DTT, 0.05% Tween20; bound peptide counted by Cerenkov counting; both purified.

Assay [2] deals with T2, OPEN STOMATA 1 (OST1), fused to the N- or C-terminal fragment of YFP for BiFC (Arabidopsis thaliana) (UniProt Q940H6).
T2 sequence: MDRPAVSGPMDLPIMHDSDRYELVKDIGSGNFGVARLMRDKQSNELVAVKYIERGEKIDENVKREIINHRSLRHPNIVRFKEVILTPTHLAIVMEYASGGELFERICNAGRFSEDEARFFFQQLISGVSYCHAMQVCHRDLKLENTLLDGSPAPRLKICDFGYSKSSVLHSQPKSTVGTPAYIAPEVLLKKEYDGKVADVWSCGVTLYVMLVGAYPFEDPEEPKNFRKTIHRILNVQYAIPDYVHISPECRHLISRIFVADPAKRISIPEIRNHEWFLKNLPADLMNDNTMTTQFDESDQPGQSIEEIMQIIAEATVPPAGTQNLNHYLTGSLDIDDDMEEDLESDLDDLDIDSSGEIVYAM
Put plainly: split reporter; BiFC: OST1 and ABF3 fused to YFP^N and YFP^C, transiently expressed in Nicotiana benthamiana leaves; confocal microscopy 3 days after infiltration; YFP^N-AKINβ as negative control.

Results are given in words; binding and its absence hold for the method and conditions named. For some assays here: In cells and extracts the contact can be indirect. Some entries that bind do so weakly or less than the wild type. Where a sequence is shown, tags or fusion partners need not be part of it.

Binding data for two molecules are collected here from publication PMC2978106, “The Arabidopsis ABA-Activated Kinase OST1 Phosphorylates the bZIP Transcription Factor ABF3 and Creates a 14-3-3 Binding Site Involved in Its Turnover” (PLoS ONE, 2010).

Regarding MALQRQGSLTLPKKK (phosphoserine at S126 (phosphorylated in vitro by OST1, 32P-labelled)) [ABF3S126 peptide phosphorylated by OST1], the binding entry in assay [1] was “no binding (tested: 15 µM peptide)”.

B1: ABA-responsive-element Binding Factor 3 (ABF3), fused to the N- or C-terminal fragment of YFP for BiFC (protein, UniProt Q9M7Q3 1-454)
chain: MGSRLNFKSFVDGVSEQQPTVGTSLPLTRQNSVFSLTFDEFQNSWGGGIGKDFGSMNMDELLKNIWTAEESHSMMGNNTSYTNISNGNSGNTVINGGGNNIGGLAVGVGGESGGFFTGGSLQRQGSLTLPRTISQKRVDDVWKELMKEDDIGNGVVNGGTSGIPQRQQTLGEMTLEEFLVRAGVVREEPQPVESVTNFNGGFYGFGSNGGLGTASNGFVANQPQDLSGNGVAVRQDLLTAQTQPLQMQQPQMVQQPQMVQQPQQLIQTQERPFPKQTTIAFSNTVDVVNRSQPATQCQEVKPSILGIHNHPMNNNLLQAVDFKTGVTVAAVSPGSQMSPDLTPKSALDASLSPVPYMFGRVRKTGAVLEKVIERRQKRMIKNRESAARSRARKQAYTMELEAEIAQLKELNEELQKKQVEIMEKQKNQLLEPLRQPWGMGCKRQCLRRTLTGPW
With B1, the binding result in assay [2] is “binds”.
